The results in this text go back to publication PMC4546416.

The chains behind the UniProt entries cited, without tags or fusion partners. Where a name states a change or a piece, a line headed by the entry shows the natural chain unless it says otherwise. A line that says so, or that is headed by a name, gives the form on record, which may keep a tag or linker.
UniProt O54992: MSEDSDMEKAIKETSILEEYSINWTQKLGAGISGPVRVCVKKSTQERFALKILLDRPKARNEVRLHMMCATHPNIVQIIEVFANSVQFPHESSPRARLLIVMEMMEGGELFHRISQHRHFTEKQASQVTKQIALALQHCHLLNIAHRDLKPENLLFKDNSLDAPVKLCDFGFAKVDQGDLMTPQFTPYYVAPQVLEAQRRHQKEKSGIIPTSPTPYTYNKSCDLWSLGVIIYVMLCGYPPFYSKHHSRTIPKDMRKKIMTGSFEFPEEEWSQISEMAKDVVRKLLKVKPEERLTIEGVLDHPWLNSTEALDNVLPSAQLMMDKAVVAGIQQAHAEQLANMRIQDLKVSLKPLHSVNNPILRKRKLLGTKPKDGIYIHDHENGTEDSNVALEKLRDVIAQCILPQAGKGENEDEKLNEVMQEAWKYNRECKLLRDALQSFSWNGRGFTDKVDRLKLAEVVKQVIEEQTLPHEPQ
GFP-tagged MK5/PRAK-Δex8 (exon 8 deletion mutant) (O54992, form named): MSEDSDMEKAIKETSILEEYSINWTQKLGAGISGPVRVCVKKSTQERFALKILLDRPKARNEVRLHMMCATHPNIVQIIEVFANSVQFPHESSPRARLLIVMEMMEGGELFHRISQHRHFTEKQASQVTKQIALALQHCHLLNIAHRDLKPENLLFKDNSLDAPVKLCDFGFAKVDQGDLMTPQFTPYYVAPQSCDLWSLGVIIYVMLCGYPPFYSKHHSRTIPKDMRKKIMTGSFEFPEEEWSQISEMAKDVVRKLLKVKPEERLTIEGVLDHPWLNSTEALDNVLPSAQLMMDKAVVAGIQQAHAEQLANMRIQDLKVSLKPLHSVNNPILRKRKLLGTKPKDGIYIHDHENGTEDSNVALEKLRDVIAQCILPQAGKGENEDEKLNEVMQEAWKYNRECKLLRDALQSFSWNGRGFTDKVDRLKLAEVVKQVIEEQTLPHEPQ
UniProt Q16659: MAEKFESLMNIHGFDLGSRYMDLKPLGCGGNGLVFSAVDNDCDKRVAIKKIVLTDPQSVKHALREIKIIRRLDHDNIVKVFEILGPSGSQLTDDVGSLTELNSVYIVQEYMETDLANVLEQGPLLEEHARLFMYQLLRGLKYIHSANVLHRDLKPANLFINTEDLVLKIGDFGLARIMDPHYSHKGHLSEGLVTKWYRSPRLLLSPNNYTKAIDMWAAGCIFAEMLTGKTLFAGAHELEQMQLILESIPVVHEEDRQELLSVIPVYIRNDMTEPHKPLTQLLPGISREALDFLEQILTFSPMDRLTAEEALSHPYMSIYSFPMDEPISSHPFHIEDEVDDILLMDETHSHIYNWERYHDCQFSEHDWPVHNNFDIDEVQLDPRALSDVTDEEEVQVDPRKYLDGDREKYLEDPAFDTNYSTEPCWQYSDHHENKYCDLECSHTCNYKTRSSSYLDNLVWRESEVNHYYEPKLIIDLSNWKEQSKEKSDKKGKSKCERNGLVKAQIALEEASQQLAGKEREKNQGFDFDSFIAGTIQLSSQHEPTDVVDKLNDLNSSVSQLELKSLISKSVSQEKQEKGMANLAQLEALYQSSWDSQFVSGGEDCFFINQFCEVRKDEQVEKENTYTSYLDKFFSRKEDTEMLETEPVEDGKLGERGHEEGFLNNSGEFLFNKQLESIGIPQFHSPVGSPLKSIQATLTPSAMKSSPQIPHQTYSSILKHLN

These are yes or no findings as the source states them, for the method shown. Binding seen in cells or lysates may run through a third protein. Some binding calls cover weakened binding; strength is not graded here.

For assay [1], the target named is GFP-tagged MK5/PRAK wild type (MAPK-activated protein kinase 5 / p38-regulated and -activated kinase) (mouse) (UniProt O54992). The assay can be described thus: co-IP; GFP-MK5/PRAK or its Δex6 / Δex8 mutants co-expressed with His-ERK3 in HEK293 cells; lysates (10 mM Tris/HCl pH 7.5, 150 mM NaCl, 0.5 mM EDTA, 0.5% NP-40, then diluted) incubated with GFP nanobodies on M-270 epoxy magnetic beads, 1 h at 4°C; washes up to 300 mM NaCl; ERK3 seen by Coomassie stain and by Western blot against ERK3. For orientation: In western blotting, separated proteins are transferred to a membrane and probed.

In assay [2] the target is GFP-tagged MK5/PRAK-Δex8 (exon 8 deletion mutant) (mouse) (UniProt O54992). The description is as above.

As for “His-ERK3 (from UniProt Q16659 1-721) (enzyme)”, the binding result in assay [1] and in assay [2] was “binds” in each case.
